This assay has as its system Aspergillus fumigatus. Description: Broth microdilution antifungal MIC (NCCLS). Type of assay: cell-based. The settings on record: Aspergillus fumigatus S-430; RPMI-1640, 35° C., 72 hours. As for the experimental part:
The antifungal activity of Hygroscopene A is determined by a broth microdilution method as recommended by the National Committee for Clinical Laboratory Standard (NCCLS) (1, 2). Sterile, disposable, multiwell plates (96 U-shaped wells) containing serial dilutions of Hygroscopene A and a control drug (Amphotericin B) are prepared in a 100 μl volume with RPMI-1640 broth supplemented with 0.2% sodium bicarbonate and […] [3-(N-morpholino) propanesulfonic acid] buffer. RPMI-1640 is a completely synthetic medium that supports the growth of most fungi. Antimicrobial agent concentrations ranged from 0.06-64 μg/ml. Five colonies from 24-hour old yeast culture or 48-hour old filamentous fungi culture were suspended in 0.85% saline. The suspensions are diluted in RPMI-1640 broth and inoculated in to plates (100 μl/well) containing antimicrobial agents. The final inocula of yeast or fungi are 0.5-2.5×10^3 CFU/ml and 0.4×10^4-5×10^4 CFU/ml respectively. Plates are incubated at 35° C. for 24-72 hours in ambient air. Hygroscopene A is tested against a panel of pathogenic yeast and filamentous fungi, which consisted of Candida sp. and Aspergillus sp. […] The MIC values for yeast are determined after 24-48 hours of incubation. For filamentous fungi, the MIC is determined after 72 hours of incubation.

Each structure is given as a SMILES string. Values after ≈ are worked out from the molar mass of the structure shown.

`C[C@@H]1[C@H](O)[C@@H](C)/C=C/C=C/C=C/C=C/C=C/C=C/C=C/[C@H](O[C@@H]2O[C@H](C)[C@@H](O)[C@H](N)[C@@H]2O)C[C@@H]2O[C@](O)(C[C@@H](O)C[C@@H](O)[C@H](O)CC[C@@H](O)C[C@@H](O)CC(=O)O[C@H]1C)C[C@H](O)[C@H]2C(=O)O` [Amphotericin B, reference compound] yielded a minimal inhibitory concentration (MIC) of 0.25 µg/mL (≈ 0.271 µM).

For the origin of these results see patent publication US20040138302A1, “Antifungal antibiotics” (Wyeth Holdings Corporation, priority 2002, published 2004).
